# Primary screen of a compound library

Amino acid sequences for entries named in this document (tags omitted). Residues count along the entry.
UniProt P9WPC5, whole entry: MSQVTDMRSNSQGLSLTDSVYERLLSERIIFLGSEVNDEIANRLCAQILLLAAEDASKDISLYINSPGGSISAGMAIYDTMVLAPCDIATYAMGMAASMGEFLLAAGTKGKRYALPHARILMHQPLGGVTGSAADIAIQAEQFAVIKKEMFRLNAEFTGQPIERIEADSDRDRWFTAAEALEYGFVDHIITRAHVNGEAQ
UniProt P9WPC3, whole entry partner: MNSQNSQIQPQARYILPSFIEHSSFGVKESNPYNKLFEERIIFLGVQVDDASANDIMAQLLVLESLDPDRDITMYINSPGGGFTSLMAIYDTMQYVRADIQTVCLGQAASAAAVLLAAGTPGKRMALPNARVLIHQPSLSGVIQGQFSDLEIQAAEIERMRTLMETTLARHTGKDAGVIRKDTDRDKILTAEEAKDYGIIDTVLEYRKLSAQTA
UniProt P9WNZ1, whole entry: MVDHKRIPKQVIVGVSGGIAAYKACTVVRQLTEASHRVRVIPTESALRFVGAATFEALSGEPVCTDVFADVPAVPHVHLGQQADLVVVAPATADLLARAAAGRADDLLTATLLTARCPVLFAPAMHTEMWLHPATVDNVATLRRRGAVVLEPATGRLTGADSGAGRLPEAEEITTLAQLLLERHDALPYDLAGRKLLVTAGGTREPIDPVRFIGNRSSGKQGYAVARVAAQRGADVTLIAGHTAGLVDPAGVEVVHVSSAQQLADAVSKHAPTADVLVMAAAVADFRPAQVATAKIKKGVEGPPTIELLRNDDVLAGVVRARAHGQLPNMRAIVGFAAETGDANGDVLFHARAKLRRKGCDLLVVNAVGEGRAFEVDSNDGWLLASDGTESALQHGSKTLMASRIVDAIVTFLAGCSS
UniProt Q8IDJ8, 1-583: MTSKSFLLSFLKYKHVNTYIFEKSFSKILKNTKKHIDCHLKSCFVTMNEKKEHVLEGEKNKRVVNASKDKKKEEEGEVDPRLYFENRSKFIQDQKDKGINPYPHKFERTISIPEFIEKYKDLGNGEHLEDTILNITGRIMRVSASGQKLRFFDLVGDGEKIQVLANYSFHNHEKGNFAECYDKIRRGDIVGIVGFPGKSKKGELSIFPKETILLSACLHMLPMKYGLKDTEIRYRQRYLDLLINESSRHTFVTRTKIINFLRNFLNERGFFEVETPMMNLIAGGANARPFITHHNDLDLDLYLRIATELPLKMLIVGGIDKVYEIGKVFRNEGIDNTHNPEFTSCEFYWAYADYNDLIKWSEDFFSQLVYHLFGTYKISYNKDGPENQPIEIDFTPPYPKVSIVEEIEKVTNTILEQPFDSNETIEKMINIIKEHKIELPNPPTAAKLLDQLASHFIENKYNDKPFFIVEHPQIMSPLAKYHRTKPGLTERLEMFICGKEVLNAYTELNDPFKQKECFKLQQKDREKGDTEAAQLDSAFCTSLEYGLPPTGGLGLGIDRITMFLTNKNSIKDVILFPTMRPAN
UniProt Q4DA54, 1-478: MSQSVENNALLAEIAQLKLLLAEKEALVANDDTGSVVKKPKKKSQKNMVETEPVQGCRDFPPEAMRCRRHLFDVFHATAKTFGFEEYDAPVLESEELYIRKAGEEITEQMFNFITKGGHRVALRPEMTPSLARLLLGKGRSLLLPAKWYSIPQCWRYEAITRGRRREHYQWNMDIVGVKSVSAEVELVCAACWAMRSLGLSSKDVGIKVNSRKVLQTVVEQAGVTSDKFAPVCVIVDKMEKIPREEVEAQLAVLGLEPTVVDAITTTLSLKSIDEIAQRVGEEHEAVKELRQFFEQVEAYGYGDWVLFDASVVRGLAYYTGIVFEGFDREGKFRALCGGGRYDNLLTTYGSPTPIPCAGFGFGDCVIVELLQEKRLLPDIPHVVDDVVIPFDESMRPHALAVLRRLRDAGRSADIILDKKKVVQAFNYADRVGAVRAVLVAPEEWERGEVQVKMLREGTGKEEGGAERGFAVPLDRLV
UniProt I6X8D2, whole entry: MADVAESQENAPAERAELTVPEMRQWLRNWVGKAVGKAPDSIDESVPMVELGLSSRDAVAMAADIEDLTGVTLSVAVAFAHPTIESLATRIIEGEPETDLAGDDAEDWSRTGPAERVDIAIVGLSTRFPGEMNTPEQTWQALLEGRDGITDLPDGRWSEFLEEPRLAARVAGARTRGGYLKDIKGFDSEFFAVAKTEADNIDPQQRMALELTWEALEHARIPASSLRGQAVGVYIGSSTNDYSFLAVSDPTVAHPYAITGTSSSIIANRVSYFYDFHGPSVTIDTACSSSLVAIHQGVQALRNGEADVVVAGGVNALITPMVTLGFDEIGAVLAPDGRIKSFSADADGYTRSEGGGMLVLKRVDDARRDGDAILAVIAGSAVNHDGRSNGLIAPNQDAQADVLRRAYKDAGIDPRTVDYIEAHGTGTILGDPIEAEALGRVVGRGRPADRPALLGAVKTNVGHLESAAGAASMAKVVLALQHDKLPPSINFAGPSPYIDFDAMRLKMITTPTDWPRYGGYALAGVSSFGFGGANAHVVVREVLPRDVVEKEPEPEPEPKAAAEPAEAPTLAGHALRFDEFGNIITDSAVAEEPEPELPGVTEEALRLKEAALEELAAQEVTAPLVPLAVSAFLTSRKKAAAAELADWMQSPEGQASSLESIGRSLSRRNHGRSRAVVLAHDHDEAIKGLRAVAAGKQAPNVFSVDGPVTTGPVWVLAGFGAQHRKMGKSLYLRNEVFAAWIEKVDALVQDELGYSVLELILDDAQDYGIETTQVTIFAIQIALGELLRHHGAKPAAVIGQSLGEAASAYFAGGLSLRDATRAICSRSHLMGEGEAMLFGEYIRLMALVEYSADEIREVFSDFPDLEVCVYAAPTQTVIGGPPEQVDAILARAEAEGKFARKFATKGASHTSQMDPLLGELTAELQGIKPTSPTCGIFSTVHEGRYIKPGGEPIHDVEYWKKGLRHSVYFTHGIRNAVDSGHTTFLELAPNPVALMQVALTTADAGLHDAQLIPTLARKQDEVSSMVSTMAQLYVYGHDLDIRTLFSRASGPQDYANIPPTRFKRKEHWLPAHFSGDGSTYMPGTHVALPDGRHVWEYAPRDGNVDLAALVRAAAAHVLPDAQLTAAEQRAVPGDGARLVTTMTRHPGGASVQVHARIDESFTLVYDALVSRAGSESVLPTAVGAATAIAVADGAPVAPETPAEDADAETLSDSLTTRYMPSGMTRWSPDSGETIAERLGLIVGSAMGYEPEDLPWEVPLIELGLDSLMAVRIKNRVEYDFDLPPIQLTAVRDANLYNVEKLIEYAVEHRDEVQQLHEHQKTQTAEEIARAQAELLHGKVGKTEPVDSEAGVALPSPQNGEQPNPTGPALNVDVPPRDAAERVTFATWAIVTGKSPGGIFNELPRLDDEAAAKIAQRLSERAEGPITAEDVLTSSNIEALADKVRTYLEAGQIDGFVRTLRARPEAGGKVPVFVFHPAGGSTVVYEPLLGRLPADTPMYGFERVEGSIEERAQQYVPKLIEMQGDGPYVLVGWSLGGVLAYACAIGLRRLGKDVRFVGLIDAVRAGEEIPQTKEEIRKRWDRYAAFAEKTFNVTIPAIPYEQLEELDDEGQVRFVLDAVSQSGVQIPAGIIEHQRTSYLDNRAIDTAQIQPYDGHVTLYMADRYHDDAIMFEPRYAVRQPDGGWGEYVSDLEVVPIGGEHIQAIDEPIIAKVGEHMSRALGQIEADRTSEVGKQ

Data taken from ChEMBL document CHEMBL3988442, “University of Dundee, Small-Polar-MMV Screening Library” (2021).

Results are given as percent effect. How 0% and 100% were set is not recorded. Most values in the screen are low, and negative values occur. Compounds were drawn at random from those tested, without regard to their results. Two or more numbers in one place are separate tests of the same structure; such repeats can differ widely. A dash means the value is not listed here; it may have been measured.

ClpP1P2: 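Protease assay of ClpP1P2, read by the AMC dye that it sets free. Target: ClpP1P2, Mycobacterium tuberculosis (UniProt P9WPC5 and UniProt P9WPC3). Tested at 50 µM. Direction is inferred from only a few compounds that gave an IC50; most scored high, so higher reads as stronger inhibition. Most other retested compounds had strongly negative values. Size under these conditions: about 69,000 compounds, about 10 of them at 50% or above in at least one test.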
CoaBC: 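Enzyme assay of CoaBC with a phosphate dye (Biomol Green) read at 650 nm. Target: Coenzyme A biosynthesis protein CoaBC, Mycobacterium tuberculosis (UniProt P9WNZ1). Concentration: 30 µM. Direction is inferred from only a few compounds that gave an IC50; most scored high, so higher reads as stronger inhibition. Most strong results did not repeat in a second test. Size under these conditions: about 67,000 compounds, about 40 of them at 50% or above in at least one test.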
PfKRS1: 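Lysine-tRNA ligase, Plasmodium falciparum 3D7 (UniProt Q8IDJ8). Enzyme assay of the cytosolic lysyl-tRNA synthetase in 384-well plates, read by luminescence. Compounds at 30 µM. Direction is inferred from only a few compounds that gave an IC50; most scored high, so higher reads as stronger inhibition. Size under these conditions: about 69,000 compounds, about 49 of them at 50% or above in at least one test.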
TcHisRS: 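Enzyme assay of histidyl-tRNA synthetase; the read-out is not stated. Target: Histidine-tRNA ligase, Trypanosoma cruzi CL Brener (UniProt Q4DA54). Concentration: 30 µM. Higher reads as stronger inhibition (inferred: compounds with an IC50 in retests scored well above the rest). Of about 69,000 compounds tested this way, about 31 (0.045%) reached 50% or more in at least one test.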
Pks13 thioesterase: 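Polyketide synthase Pks13, Mycobacterium tuberculosis (UniProt I6X8D2). Enzyme assay of the thioesterase domain of polyketide synthase 13; the read-out is not stated. Concentration: 30 µM. The record gives no direction; the compounds picked for IC50 retests had high values, so higher reads as stronger inhibition. About 67,000 compounds were tested under these conditions; 0.46% (about 300) showed 50% or more at least once.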

structure	ClpP1P2	CoaBC	PfKRS1	TcHisRS	Pks13 thioesterase
CNC(=O)CC1c2cccnc2C(=O)N1Cc1ccccc1 (centres undefined)	0.3081%	1.104%	5.272%	3.468%	10.82%
CCS(=O)(=O)N1CC[C@H]2OCC[C@@]2(c2nnc(C)o2)C1	10.83%	3.87%	-0.616%	1.149%	-32.83%
CCC(C)[C@H](NC(=O)c1ccc(F)cc1-n1cnnn1)C(=O)OC (some centres undefined)	-20.9%	0.8475%	-2.758%	0.9901%	-3.561%
Cc1nc(CN(CCS(C)(=O)=O)C(C)C)cs1	0.03702%	-1.489%	-0.486%	6.358%	-14.64%
C[C@@H]1CN(Cc2cc(C3CCCCC3)no2)CC[C@@]1(O)C1CC1	-9.303%	1.709%	2.109%	1.622%	21.39%
O=C(c1cccs1)N1CCN(CC2CC2)c2ncccc2C1	2.165%	1.253%	4.831%	3.659%	-
Cc1cc(NCCCNS(C)(=O)=O)nc2ccccc12	-11.04%	-0.3165%	2.041%	4.433%	23.2%
FC(F)(F)c1cccc(C2(CNCc3cc[nH]c3)CCOCC2)c1	-4.578%	-	2.536%	4.459%	-6.529%
CCc1n[nH]c(C2CN(Cc3nnc(C4CCC4)o3)CCO2)n1 (centres undefined)	-7.543%	0.7874%	0.3946%	4.571%	4.278%
O=C(c1ccccn1)N1CCc2ncnc(-c3ccncc3)c2CC1	13.83%	3.415%	4.591%	8.889%	6.393%
CN1CC(=O)N(c2ccccc2)CC12CCN(C(=O)c1ccnnc1)C2 (centres undefined)	-13.63%	-4.316%	0.8256%	7.619%	-48.13%
CCn1ccnc1CN1CCCN(C(=O)Cc2ccc(C)cc2)CC1	-37%	-28.42%	-0.6699%	2.564%	-11.28%
CSc1nccc(NCc2cc3n(n2)CCCN(C(=O)C2CCC2)C3)n1	26.2%	4.685%	-3.545%	5.025%	33.08%
Cc1ccc2[nH]c(CO[C@H]3CN(c4ccc(C#N)cn4)C[C@H]3F)nc2c1	78.41%	10.58% & 72.46%	15.03%	14.85%	53.86%
COc1ccnc(N(C)Cc2csc(C)n2)n1	-8.574%	4.516%	2.086%	1.478%	-22.91%
CC(=O)c1cc(CC(=O)NCc2ccsc2)cs1	-0.5433%	-3.968%	3.23%	7.143%	-11.29%
CCCC(=O)NCc1cc(Br)c(OC)c(OC)c1	-15.85%	5.804%	2.047%	-1.245%	-18.48%
CCNC(=O)Cc1n[nH]c(-c2cncc(Br)c2)n1	16.28%	-1.952%	-0.1256%	4.386%	-1.645%
Cc1cc(C(=O)NC2CCCCNC2=O)c(=O)[nH]c1C (centres undefined)	-10.77%	-0.122%	4.786%	-1.807%	3.372%
Cc1nc(NC(=O)N(C)Cc2ccsc2)nn1C	3.858%	2.828%	13.26%	1.117%	-36.46%
CCc1nccn1CCC(=O)N1CC[C@H](CO)[C@H](O)C1	-6.37%	-9.208%	3.079%	5.682%	-6.327%
CC(C)n1ccnc1C1CCCN(c2cc(C(=O)NC3CC3)ccn2)C1 (centres undefined)	4.071%	-0.2571%	8.364%	1.117%	4.982%
COC(C)Cc1nc(-c2cnn3c(C)cc(C)nc23)no1 (centres undefined)	-3.637%	-1.152%	-5.014%	-0.6135%	-7.215%
CCN1CCC(CNc2nccc(C)n2)(N(C)C)CC1	-9.112%	-0.2049%	7.252%	3.191%	-15.02%
Cn1cc(CN2CC[C@H]3OCC[C@@H](C(=O)NC4CCCC4)[C@@H]3C2)cn1	-9.286%	1.504%	1.174%	6.098%	-3.635%
CC1CCN(C(=O)[C@H]2C[C@@H]3CCN(CC4CCOCC4)C[C@H]3O2)CC1	-6.801%	6.352%	2.686%	4.598%	-6.668%
COc1ccc2c(c1)CCCC2CC(=O)NCC(C)(C)C(=O)O (centres undefined)	-5.495%	0.3681%	-3.141%	1.235%	14.73%
CC(C)(C)CC(=O)NC[C@H]1OC[C@@H](NCc2ccccn2)[C@@H]1O	-6.484%	-10.82%	8.045%	2.174%	-20.62%
OCCn1nccc1C1CCN(CCCOc2ccc(F)cc2)CC1	3.685%	4.841%	2.49%	3.03%	-6.656%
COCCC(=O)N1CCCC([C@@H]2C[C@H](C(F)F)n3ncnc3N2)C1 (some centres undefined)	13.46%	-1.435%	0.5268%	9.579%	-1.471%
Cc1cnn(Cc2cc(F)ccc2F)c1NC(=O)CNC(=O)C1CC1	-2.32%	-0.123%	1.886%	0%	-4.066%
Cc1nc(C(C)C)sc1CNC(=O)CCCN1CCCCC1	8.001%	17.36%	4.971%	-6.557%	1.141%
CC(C)(C)C(=O)Cn1nc(-c2ccccc2F)ccc1=O	3.727%	-0.9421%	-0.3615%	-2.732%	-28.07%
Cc1nc(C)n(C2CCCN(C(=O)c3cn4cccnc4n3)C2)n1 (centres undefined)	-9.472%	6.832%	-0.4133%	3.152%	1.819%
Cn1ccnc1C(=O)N1CCC2(CCN2Cc2ccc(F)cc2)C1 (centres undefined)	2.577%	-6.807%	-0.4059%	-2.513%	-
Nc1nccnc1C1CN(Cc2ccc(OCC(=O)O)cc2)CCO1 (centres undefined)	26.44%	6.76%	1.815%	7.143%	-4.764%
CN1CCN(c2ccc(F)cc2NC(=O)NCc2ccon2)CC1	-14.53%	3.396%	7.614%	0.8929%	-17.74%
Cc1ccc(C(=O)N2CCC3(CCC(C(=O)NCC4CC4)O3)CC2)o1 (centres undefined)	4.673%	19.76%	1.009%	1.442%	-20.34%
CN(C)CC(=O)N1Cc2nc(C(=O)NCc3ccncc3)oc2C1	3.343%	2.665%	3.488%	-2.703%	-7.858%
CC(=O)c1ccc(F)cc1-c1cc(NCCO)nc2[nH]ccc12	-1.243%	4.303%	1.638%	17.02%	-18.19%
O=C(Cc1ccc(F)c(Br)c1)N1CCN(CCO)CC1	-16.83%	2.611%	2.569%	-1.13%	-22.84%
COCc1nc(N(C)CCSc2ccccc2)c2cnn(C)c2n1	4.057%	-5.782%	-0.5207%	2.273%	-41.03%
O=C1CC2(CCN(c3nncs3)C2)CN1c1cncnc1 (centres undefined)	-10.98%	6.173%	2.037%	-0.9346%	-9.938%
CN1CCCC[C@@H]2[C@H]1[C@@H](c1ccccc1)CCN2C(=O)c1cnccn1	1.6%	-2.5%	-1.24%	5.946%	-19.82%
CC1COCCN1c1ncnc2sccc12 (centres undefined)	-0.7514%	4.132%	6.885%	1.667%	-8.477%
Cc1ccccc1C1CN(c2cnn(C)c(=O)c2Cl)CCO1 (centres undefined)	-2.604%	-	0.47%	5.195%	-
CCCN(Cc1cnc2ccccc2n1)Cc1ccccc1OC	-3.073%	6.64%	5.544%	8.427%	-24.18%
CC(C)NC(=O)N1C[C@H]2C[C@H](C(=O)N3CCCC3)[C@@H](C1)O2	-0.327%	-2.463%	1.842%	-1.031%	-45.64%
COc1ccc2c(c1)CCCN(C(C)C(=O)NC(N)=O)C2 (centres undefined)	2.245%	-	2.485%	2.632%	-36.43%
O=C(Nc1ccc(F)c(Cl)c1)N1CCCN([C@H]2COC[C@@H]2O)CC1	-5.636%	1.489%	5.224%	-19.08%	-23.91%
CC1(C)OC(=O)N(CCCOc2ccc(F)cc2)C1=O	-9.474%	6.65%	3.761%	7.463%	-1.816%
O=C(CCOc1ccccc1F)N1CCC(O)CC1	-1.954%	-1.631%	1.165%	5.473%	1.072%
Cc1cnc(C(=O)N2CCCN(c3nc(C)cs3)CC2)cn1	-23.38%	-2.089%	0.8786%	2.825%	-6.794%
Clc1ccccc1-c1nc(CNCCn2cccn2)cs1	11.91%	6.649%	2.583%	-0.3802%	-5.925%
O=C(NCCSC1CCCC1)c1cc(C2CC2)on1	-0.0161%	-0.7212%	1.473%	3.797%	-36.37%
COc1ccc(CN2CC(O)CN(C(=O)OCC(C)(C)C)CC2=O)cc1 (centres undefined)	8.88%	-0.4843%	5.705%	5.618%	-0.6739%
O=C(c1ncccn1)N1C[C@@H]2CC[C@H](Oc3cccc(F)c3)[C@@H]2C1	-9.722%	7.063%	1.407%	14.23%	4.024%
CC(OCC1CC1)C(=O)Nc1cccc(C(=O)Nc2ccccn2)c1 (centres undefined)	-9.888%	7.351%	0.3214%	0%	-16.29%
O=C(c1cscn1)N1CCC2(CN(Cc3ccncc3)C2)C1	-16.21%	3.576%	1.074%	5.263%	-0.4908%
CN(Cc1cc(C(C)(C)C)n[nH]1)Cc1c[nH]nc1-c1ccc(F)cc1	14.95%	-2.066%	3.835%	7.065%	-36.89%
CCc1nnc2n1CCN(c1nc(C)cc(N(C)C)n1)C2	-0.6918%	5.283%	4.707%	14.29%	-20.45%

For reference, 8 entries once more:

CN(C)CC(=O)N1Cc2nc(C(=O)NCc3ccncc3)oc2C1 gave ClpP1P2: 3.343%; CoaBC: 2.665%; PfKRS1: 3.488%; TcHisRS: -2.703%; Pks13 thioesterase: -7.858%.
O=C(c1ccccn1)N1CCc2ncnc(-c3ccncc3)c2CC1 gave ClpP1P2: 13.83%; CoaBC: 3.415%; PfKRS1: 4.591%; TcHisRS: 8.889%; Pks13 thioesterase: 6.393%.
CCN1CCC(CNc2nccc(C)n2)(N(C)C)CC1 gave ClpP1P2: -9.112%; CoaBC: -0.2049%; PfKRS1: 7.252%; TcHisRS: 3.191%; Pks13 thioesterase: -15.02%.
O=C(Nc1ccc(F)c(Cl)c1)N1CCCN([C@H]2COC[C@@H]2O)CC1 gave ClpP1P2: -5.636%; CoaBC: 1.489%; PfKRS1: 5.224%; TcHisRS: -19.08%; Pks13 thioesterase: -23.91%.
FC(F)(F)c1cccc(C2(CNCc3cc[nH]c3)CCOCC2)c1 gave ClpP1P2: -4.578%; PfKRS1: 2.536%; TcHisRS: 4.459%; Pks13 thioesterase: -6.529%.
COc1ccnc(N(C)Cc2csc(C)n2)n1 gave ClpP1P2: -8.574%; CoaBC: 4.516%; PfKRS1: 2.086%; TcHisRS: 1.478%; Pks13 thioesterase: -22.91%.
OCCn1nccc1C1CCN(CCCOc2ccc(F)cc2)CC1 gave ClpP1P2: 3.685%; CoaBC: 4.841%; PfKRS1: 2.49%; TcHisRS: 3.03%; Pks13 thioesterase: -6.656%.
COCc1nc(N(C)CCSc2ccccc2)c2cnn(C)c2n1 gave ClpP1P2: 4.057%; CoaBC: -5.782%; PfKRS1: -0.5207%; TcHisRS: 2.273%; Pks13 thioesterase: -41.03%.